Test results published in PubChem BioAssay AID2685 (National Center for Advancing Translational Sciences (NCATS), 2010).
Some of the results follow. These are further read-outs of the screen, such as a control signal, another cell line or another target. No call is given for them. The list favours compounds with an active or inconclusive main result. Potencies come from curve fits of mixed quality, noted in brackets.

Assay: qHTS Assay for Lipid Storage Modulators in Drosophila S3 Cells;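 as to cell number change: cells counted by Cell Tracker Red CMTPX staining in the red channel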
Conditions: BODIPY lipid droplet fluorescence, 18-24 h; for cell number change: measured here: cell count max response, cells fed with added oleic acid
Method in brief: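 Laser-scanning cytometry quantifies lipid droplet accumulation (500–530 nm total intensity; droplet/cell object ratio) in oleic acid-fed (400 uM added) Drosophila S3 cells treated with a concentration series. 20 uM Triacsin C defined 100% inhibition.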

[1] = measured here: lipid fluorescence (Fed channel) AC50, cells fed with added oleic acid
[2] = measured here: cell number channel AC50, cells fed with added oleic acid

| Compound | cell number change | AC50 [1] | AC50 [2] |
| --- | --- | --- | --- |
| Cc1ccc2c(c1)C(=O)CC(O)(C(F)F)O2 (stereo unspecified) | -7.95% |  |  |
| CCOc1cc(/C=N/N=C/c2ccc(O)c(OCC)c2)ccc1O | -16.2% |  |  |
| Cc1cccc(NC(=O)c2nc[nH]c2C(=O)NCC(=O)OCc2ccccc2)c1 | 7.26% | 29.1 µM [rising, single point] |  |
| COc1ccc2c(c1)c(=O)oc1cc(OCC(=O)N3CCCC(C)C3)ccc12 (stereo unspecified) | 122% | 29.1 µM [rising, partial curve] | 29.1 µM [rising, single point] |
| C=CCn1c(SCC(=O)NC2CCCC2)nnc1-c1cccnc1 | 5.62% |  |  |
| Cc1cc(C(=O)N/N=C/c2cccc([N+](=O)[O-])c2)c(C)n1-c1ccccc1 | 80.5% | 29.1 µM [rising, partial curve] | 29.1 µM [rising, single point] |
| CCCCCCCCNC(=O)c1ccc(C)cc1 | 72.6% | 23.1 µM [rising, single point] | 18.4 µM [rising, single point] |
| CC(=O)N1N=C(c2cccc([N+](=O)[O-])c2)OC1c1ccccc1Cl (stereo unspecified) | 159% | 25.9 µM [rising, single point] | 0.00411 µM [rising, full curve, poor fit] |
| Cc1ccccc1NC(=O)COC(=O)CCSc1ccccc1 | 59.3% | 6.51 µM [rising, single point] | 7.31 µM [rising, partial curve] |
| O=C(Nc1ccnn1C1CCN(CC2CC=CCC2)CC1)c1ccccc1 (stereo unspecified) | 5.52% | 0.58 µM [rising, single point] |  |
| C/C(=N\NC(=O)c1c(Cl)c(C)nn1C)c1ccc(NC(=O)c2ccncc2)cc1 | -1.1% |  |  |
| Fc1ccc(CSc2nnc(-c3cccs3)o2)cc1 | -18.2% |  | 0.146 µM [falling, full curve, poor fit] |
| C=CCC(C)(NCc1ccccc1)c1ccc(C)cc1 (stereo unspecified) | -40.2% | 23.1 µM [falling, single point] | 23.1 µM [falling, single point] |
| COc1cc(C2CC(=O)Nc3ccccc3S2)cc(OC)c1OC (stereo unspecified) |  |  | 3.66 µM [rising, single point] |
| CN(C)C(=O)COc1ccc2ccc(=O)oc2c1 | 25.2% |  |  |
| COCCN1Cc2cccc(C(=O)Nc3ccccc3OC)c2C1=O | 13.3% | 0.366 µM [rising, full curve] |  |
| CSc1ccc(/C=C/C(=O)NC(=O)c2ccccc2O)cc1 | -29.2% | 18.4 µM [falling, single point] |  |
| Cc1ccc(NC(=S)Nc2ccc(Cl)c(Cl)c2)c(OC(F)F)c1 | -53.1% | 29.1 µM [falling, single point] | 29.1 µM [falling, single point] |
| O=C(Nc1ccnn1C1CCN(C(=O)c2cnsn2)CC1)c1cccc(F)c1 | -25.4% | 29.1 µM [falling, single point] |  |
| CCCc1cc(=O)oc2c(C)c(O[C@@H]3O[C@H](CO)[C@@H](O)[C@H](O)[C@H]3O)ccc12 | 9.92% |  |  |
| Cc1ccccc1N1CCN(c2ncnc3scc(-c4cccs4)c23)CC1 | -10.4% |  |  |

Retrieved one by one from above (two):

| Compound | cell number change | AC50 [1] | AC50 [2] |
| --- | --- | --- | --- |
| Cc1cccc(NC(=O)c2nc[nH]c2C(=O)NCC(=O)OCc2ccccc2)c1 | 7.26% | 29.1 µM [rising, single point] |  |
| C=CCn1c(SCC(=O)NC2CCCC2)nnc1-c1cccnc1 | 5.62% |  |  |

The list goes on:

| Compound | cell number change | AC50 [1] | AC50 [2] |
| --- | --- | --- | --- |
| COc1ccc([C@@H]2[C@@H]3C(=O)N(C(C)(C)C)C(=O)[C@@H]3[C@]3(Cc4ccccc4)C(=O)N(c4ccccc4)C(=O)N23)cc1 | 24.6% | 29.1 µM [rising, single point] |  |
| COCc1c(C(=O)NC2CCCCCC2)oc2ccccc12 |  | 0.103 µM [rising, full curve, poor fit] | 0.092 µM [rising, full curve, poor fit] |
| Cc1cc(C)n(CCCNC(=O)c2ccco2)n1 | 14.1% | 20.6 µM [rising, single point] |  |
| O=C(CC1SC(N2CCOCC2)=NC1=O)Nc1ccc(Cl)cc1 (stereo unspecified) | -21.7% |  | 0.00517 µM [falling, full curve, poor fit] |
| NC(=O)COc1ccc(-c2noc(COc3ccccc3[N+](=O)[O-])n2)cc1 | 32.8% |  |  |
| COc1ccc(NC(=S)Nc2cc(S(=O)(=O)N3CCCCC3)ccc2OC)cc1 | 16.7% | 4.11 µM [rising, single point] |  |
| C=CCNc1nc(N)c(C(=C(C#N)C#N)c2ccccc2)s1 | 150% |  | 2.31 µM [rising, partial curve] |
| COCC(=O)OCC(=O)Nc1cc(C(C)(C)C)nn1-c1ccccc1 | 41% |  |  |
| O=C1CC(C(=O)N2CCc3ccccc32)CN1c1ccc(F)cc1 (stereo unspecified) | 2.17% |  |  |
| NS(=O)(=O)c1ccc2nc(NC(=O)Nc3ccc(F)cc3)sc2c1 | 21.4% | 29.1 µM [rising, single point] | 0.00461 µM [rising, full curve, poor fit] |
| O=C(NCCN1CCCCC1)Nc1cccc(Cl)c1Cl | -4.95% |  |  |
| O=C(/C=C/c1ccccc1)NCC1(c2ccccc2)CCOCC1 | 15% |  |  |
| FC(F)(F)c1cnc2c(-c3ccccc3)n[nH]c2c1 | -12.4% |  |  |
| Cc1ccc(S(=O)(=O)N2CCN(c3ncnc4sccc34)CC2)cc1 | -37.4% |  | 16.4 µM [falling, single point] |
| O=C(CSc1cn(CCNC(=O)c2ccccc2)c2ccccc12)NCc1ccco1 | -10.3% | 0.326 µM [rising, full curve, poor fit] |  |
| CCCCOC(=O)c1cc(=O)[nH]c2ccccc12 |  |  | 3.26 µM [rising, single point] |
| COc1ccc(N2CCN(C(=O)C3CCN(C(=O)c4ccccc4Cl)CC3)CC2)cc1 | 20.4% |  |  |
| Cc1ccc(-c2nn3c(C)nnc3s2)cc1NC(=O)COc1ccc(Cl)cc1 | -39.9% |  | 7.31 µM [falling, partial curve] |
| CC(C)c1nnc(NC(=O)COc2ccc3c(c2)OCO3)s1 | 0.855% | 6.51 µM [falling, single point] |  |
| O=C(COC(=O)C1(c2cccc(F)c2)CCCC1)NCc1ccc2c(c1)OCO2 | -17.2% | 23.1 µM [falling, single point] |  |
| COc1ccc(OC)c(S(=O)(=O)N2CCC(C(=O)Nc3cccc(C(F)(F)F)c3)CC2)c1 |  | 6.51 µM [rising, single point] | 6.51 µM [rising, single point] |
